For at least one compound, name, drawing or mass did not settle the structure.
Tested on: Arabidopsis plants transformed with nptII selection cassettes
Test: Kanamycin selection of transformed plants in soil
Format: in vivo
Conditions: spraying with a 500 microgram/ml solution in water, CsVMV::nptII or RE4::nptII cassette

For `NC[C@H]1O[C@H](O[C@H]2[C@H](O)[C@@H](O[C@H]3O[C@H](CO)[C@@H](O)[C@H](N)[C@H]3O)[C@H](N)C[C@@H]2N)[C@H](O)[C@@H](O)[C@@H]1O` [kanamycin], which selection of transformants is on record?
Its selection of transformants is “efficient selection with a minimum of false positives”.
